This note sets out measurements from patent US11357857B2, “Excipient compounds for protein processing” (COMERA LIFE SCIENCES, INC., priority 2014, dated 2022).

This data set in a line: Caffeine solubility testing with co-solutes at ambient temperature (Examples 32-33). The conditions noted are these: co-solute 40 mg/mL, caffeine 80 mg/mL. The procedure:
Prepared solutions were used either neat or diluted with deionized water.
A small magnetic stir bar was added to the vial, and the solution was allowed to mix vigorously on a stir plate for about 10 minutes.

SMILES strings stand for the structures. Where a name gives a salt, the structure may show the parent alone.

In the case of `CCN(CC)CC(=O)Nc1c(C)cccc1C` [Lidocaine HCl], the “Observation of caffeine dissolution” value is “DND”.
